# From patent US20200157236A1
# Sequences of proteins named here, by UniProt entry; tags and fusion partners are left off. A change or cut given only in a name is not applied to a line headed by its entry.
# UniProt Q9UM73: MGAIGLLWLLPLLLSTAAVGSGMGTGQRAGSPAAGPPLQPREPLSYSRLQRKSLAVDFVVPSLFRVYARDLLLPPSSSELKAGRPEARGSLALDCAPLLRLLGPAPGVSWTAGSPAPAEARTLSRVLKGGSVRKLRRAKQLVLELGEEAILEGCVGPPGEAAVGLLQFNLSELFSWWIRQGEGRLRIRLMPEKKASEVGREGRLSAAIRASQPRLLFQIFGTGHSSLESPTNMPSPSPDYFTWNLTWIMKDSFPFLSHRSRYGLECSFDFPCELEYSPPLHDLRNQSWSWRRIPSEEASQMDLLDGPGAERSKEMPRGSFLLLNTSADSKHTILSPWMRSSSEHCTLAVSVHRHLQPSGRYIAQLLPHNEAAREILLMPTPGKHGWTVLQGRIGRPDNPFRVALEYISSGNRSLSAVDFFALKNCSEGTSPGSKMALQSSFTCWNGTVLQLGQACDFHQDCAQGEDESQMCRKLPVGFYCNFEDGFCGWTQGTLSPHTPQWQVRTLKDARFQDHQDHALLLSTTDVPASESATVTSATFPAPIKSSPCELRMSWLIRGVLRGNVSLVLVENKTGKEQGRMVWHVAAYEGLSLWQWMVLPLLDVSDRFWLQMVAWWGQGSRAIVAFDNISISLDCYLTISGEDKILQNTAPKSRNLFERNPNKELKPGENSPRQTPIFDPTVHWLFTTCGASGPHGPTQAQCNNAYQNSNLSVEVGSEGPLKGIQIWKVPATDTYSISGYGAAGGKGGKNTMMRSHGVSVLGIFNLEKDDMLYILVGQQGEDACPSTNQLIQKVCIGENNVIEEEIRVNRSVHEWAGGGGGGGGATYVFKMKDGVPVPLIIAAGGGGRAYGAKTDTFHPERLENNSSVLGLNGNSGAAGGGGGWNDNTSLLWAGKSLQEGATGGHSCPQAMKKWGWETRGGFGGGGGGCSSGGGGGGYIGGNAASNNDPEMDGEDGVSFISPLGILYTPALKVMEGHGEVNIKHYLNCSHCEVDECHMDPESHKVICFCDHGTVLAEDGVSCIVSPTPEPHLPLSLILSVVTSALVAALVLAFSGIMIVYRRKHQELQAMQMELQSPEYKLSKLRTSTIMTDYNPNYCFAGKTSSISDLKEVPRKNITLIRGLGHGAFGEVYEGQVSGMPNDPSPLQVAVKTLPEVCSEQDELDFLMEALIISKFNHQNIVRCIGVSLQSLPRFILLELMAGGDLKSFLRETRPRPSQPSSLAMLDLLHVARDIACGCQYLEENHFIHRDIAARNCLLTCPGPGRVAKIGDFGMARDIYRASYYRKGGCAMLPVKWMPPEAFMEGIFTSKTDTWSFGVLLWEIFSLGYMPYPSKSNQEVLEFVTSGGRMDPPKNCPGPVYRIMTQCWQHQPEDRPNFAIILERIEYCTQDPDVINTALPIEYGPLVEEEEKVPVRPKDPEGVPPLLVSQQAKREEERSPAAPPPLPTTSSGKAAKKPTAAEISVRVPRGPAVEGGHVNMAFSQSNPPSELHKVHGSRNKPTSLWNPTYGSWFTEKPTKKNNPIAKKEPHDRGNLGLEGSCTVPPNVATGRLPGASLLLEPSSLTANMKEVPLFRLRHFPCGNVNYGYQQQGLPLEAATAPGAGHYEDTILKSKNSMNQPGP
# UniProt P97793: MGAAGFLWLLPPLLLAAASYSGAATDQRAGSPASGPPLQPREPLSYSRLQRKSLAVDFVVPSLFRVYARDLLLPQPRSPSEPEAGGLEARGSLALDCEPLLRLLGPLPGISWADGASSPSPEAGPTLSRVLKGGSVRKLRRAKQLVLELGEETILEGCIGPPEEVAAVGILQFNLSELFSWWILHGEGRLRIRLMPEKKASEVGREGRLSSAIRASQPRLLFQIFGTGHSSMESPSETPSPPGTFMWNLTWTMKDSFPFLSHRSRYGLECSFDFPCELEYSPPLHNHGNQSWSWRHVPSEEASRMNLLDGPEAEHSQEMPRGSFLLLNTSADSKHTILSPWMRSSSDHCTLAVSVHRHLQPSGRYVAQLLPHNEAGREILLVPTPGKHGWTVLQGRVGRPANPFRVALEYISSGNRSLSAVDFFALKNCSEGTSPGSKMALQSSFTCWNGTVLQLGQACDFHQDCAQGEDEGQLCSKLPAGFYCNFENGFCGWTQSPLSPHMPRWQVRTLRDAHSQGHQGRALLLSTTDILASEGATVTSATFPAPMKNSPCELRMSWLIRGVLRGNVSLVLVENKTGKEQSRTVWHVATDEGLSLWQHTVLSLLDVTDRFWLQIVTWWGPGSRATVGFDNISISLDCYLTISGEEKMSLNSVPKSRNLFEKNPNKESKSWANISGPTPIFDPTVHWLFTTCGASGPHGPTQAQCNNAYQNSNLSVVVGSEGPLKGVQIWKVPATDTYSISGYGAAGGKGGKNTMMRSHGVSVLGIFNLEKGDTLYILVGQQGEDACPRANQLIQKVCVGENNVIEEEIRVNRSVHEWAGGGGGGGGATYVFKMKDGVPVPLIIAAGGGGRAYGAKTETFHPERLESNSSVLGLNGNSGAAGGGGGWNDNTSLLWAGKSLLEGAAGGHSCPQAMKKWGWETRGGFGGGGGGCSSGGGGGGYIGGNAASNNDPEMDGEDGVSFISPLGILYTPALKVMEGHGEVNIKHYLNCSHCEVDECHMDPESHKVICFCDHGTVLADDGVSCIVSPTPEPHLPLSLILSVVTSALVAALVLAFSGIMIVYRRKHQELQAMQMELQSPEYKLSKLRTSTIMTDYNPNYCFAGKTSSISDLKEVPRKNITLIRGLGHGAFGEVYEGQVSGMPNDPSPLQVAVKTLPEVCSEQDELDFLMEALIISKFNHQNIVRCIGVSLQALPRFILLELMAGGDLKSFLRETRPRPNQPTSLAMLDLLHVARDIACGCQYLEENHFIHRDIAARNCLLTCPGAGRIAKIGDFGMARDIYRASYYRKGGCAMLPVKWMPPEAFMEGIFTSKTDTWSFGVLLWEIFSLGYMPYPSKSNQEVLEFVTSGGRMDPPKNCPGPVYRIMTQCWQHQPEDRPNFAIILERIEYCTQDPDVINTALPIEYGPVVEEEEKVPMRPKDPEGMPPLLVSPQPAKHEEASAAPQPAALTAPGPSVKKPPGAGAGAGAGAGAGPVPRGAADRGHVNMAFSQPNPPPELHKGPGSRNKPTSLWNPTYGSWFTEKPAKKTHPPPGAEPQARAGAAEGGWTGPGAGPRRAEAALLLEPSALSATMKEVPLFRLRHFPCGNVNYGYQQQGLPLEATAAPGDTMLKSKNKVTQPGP
# Results are given in words; binding and its absence hold for the method and conditions named. Some results given as binding are weak or reduced against the parent protein; the word gives no strength.
# B1: Ab352 (antibody, V domains shown)
# VH: EVQLVQSGPEVKKPGTSVKLSCKASGYTFTSYWMHWVRQARGQRLEWIGYIKPSSGYTKYNQKFKDRATLTADKSTSTAYMELSSLRSEDTAVYYCARDYYGSSSWFAYWGQGTLVTVSS
# VL: EIVMTQSPAFLSVTPGEKVTITCKASQNVGTNVAWYQQKPDQAPKALIYSASYRYSGVPSRFSGSGSGTDFTLTISSLEAEDAATYYCQQYNSYPYMYTFGQGTKLEIK
# B2: Ab355 (antibody, V domains shown)
# VH: QVQLVQSGAEVAKPGASVKLSCKASGYTFTSYWMHWVKQAPGQGLEWIGYIKPSSGYTKYNQKFKDKATLTADKSTSTAYMELRSLRSDDTAVYYCARDYYGSSSWFAYWGQGTLVTVSS
# VL: EIVMTQSPAFLSVTPGEKVTITCKASQNVGTNVAWYQQKPDQAPKALIYSASYRYSGVPSRFSGSGSGTDFTLTISSLEAEDAATYYCQQYNSYPYMYTFGQGTKLEIK
# B3: Ab320 (antibody, V domains shown)
# VH: QVQLQQSGAELVKPGASVKISCKASGYAFSSYWMNWVKQRPGKGLEWIGQIYPGDGDTNYNGKFKGKATLTADKSSSTAYMQLSSLTSEDSAVYFCASYYYGSKAYWGQGTLVTVSA
# VL: DIQMTQSPASLAASVGETVTITCRASENIYYSLAWYQQKQGKSPQLLIYNANSLEDGVPSRFSGSGSGTQYSMKINSMQPEDTATYFCKQAYDVPFTFGSGTKLEIKR
# B4: Ab323 (antibody, V domains shown)
# VH: QVQLQQSGAELVKPGASVKISCKTSGYTFSNYWMNWVKQRPGKGLEWIGQIFPGDADANYNGKFKGKATLTADKSSSAAFMQLSSLTSEDSAVYFCARFSYDGAFAYWGQGTLVTVS
# VL: DIVMTQSHKFMSTSVGDRVSITCKASQDVSTAVAWYQQKPGQSPKPLIYWASTRHTGVPDRFTGSGSGTDYTLTISSVQTEDLALYYCQQHYSTPRTFGGGTKLEIKR
# B5: Ab325 (antibody, V domains shown)
# VH: QVQLQQSGAELVKPGASVKISCKASGYAFSSYWMNWVKQRPGKGLEWIGQIYPGDGDTNYNGKFKGKATLTADKSSSTAYMQLSSLTSEDSAVYFCARWYYGSYYAMDYWGQGTSVTVSS
# VL: DIQMTQTTSSLSASLGDRVTISCRASQDISNYLNWYQQKPDGTVKLLIYYTSRLHSGVPSRFSGSGSGTDYSLTISNLEQEDIATYFCQQGNTLPRTFGGGTKLEIKR
# B6: Ab326 (antibody, V domains shown)
# VH: QVQLQQSGAELAKPGASVKLSCKASGYTFTSYWMHWVKQRPGQGLEWIGYIKPSSGYTKYNQKFKDKATLTADKSSSTAYMQLSSLTYEDSAVYYCARDYYGSSSWFAYWGQGTLVTVSA
# VL: DIVMTQSQRFMSTSVGDRVSVTCKASQNVGTNVAWYQQKPGQSPKALIYSASYRYSGVPDRFTGSGSGTDFTLTISNVQSEDLAEYFCQQYNSYPYMYTFGGGTKLEIKR
# B7: Ab327 (antibody, V domains shown)
# VH: DVKLVESGEGLVKPGGSLKLSCAASGFTFSSYAMSWVRQTPEKRLEWVTYISSGGDYIYYADTVKGRFTISRDNARNTLYLQMSSLKSEDTAMYYCTRERIWLRRFFDVWGTGTTVTVSS
# VL: DIVMTQSQKFMSTSVGDRVSITCKASQNVGTAVAWYQLKPGQSPKLLIYSASNRFTGVPDRFTGSGSGTDFTLTISNMQSEDLADYFCQQYSSYPLTFGSGTKLEIKR
# B8: Ab328 (antibody, V domains shown)
# VH: QVQLQQSGAELAKPGASVKLSCKASGYTFTSYWMHWVKQRPGQGLEWIGYINPSSGYTKYNQKFKDKATLTADKSSSTAYMQLSSLTFEDSAVYYCARDYYGSSSWFAYWGQGTLVTVSA
# VL: DIVMTQSQKFMSTSVGDRVSVTCKASQNVGTNVAWYQQKPGHSPKALIYSASYRYSGVPDRFTGSGSGTDFTLTISNVQSEDLAEYFCQRYNSYPYMFTFGGGTKLEIKR
# B9: Ab329 (antibody, V domains shown)
# VH: QVQLKESGPGLVKPSATLSLTCTVSGFSLTSYHVCWIRQTPGKGLEWMGVIWGDGRTTYNPPLKSRLSISRDTSKSQVFLKMSSLKTEDTATYYCARATMTGHGDAWGQGASVTVSS
# VL: DIQMTQSPASLSASLEEIVTITCQASQDIDNYLSWYQQKPGKSPHLLIHSATSLADGVPSRFSGGRSGTQFSLKINRLQVEDTGIYYCLQHYSGWTFGGGTKLELKR
# B10: Ab330 (antibody, V domains shown)
# VH: EVQVVETGGGVVQPGKSLEITCATSGLTFSTAWMYWVRQSSDRRLEWIARIKDKSNKFASDYVESVRGRFTISRDDSRSSVYLQMNNLKEEDTATYYCTTSYGYAWGQGVMVTVSS
# VL: DIQMTQSPSSMSASLGDRVTITCQASQDIGNYLIWFQQKPGKSPRPLIYYATNLANGVPSRFSGSRSGSEYSLTITSLESEDMADYHCLQYKQHLTFGSGTKLEIER
# Molecular target: human ALK on the surface of NB1 cells (human) (UniProt Q9UM73)
# Experiment: flow cytometry on NB1 and Neuro2a cells
row,Binder,binding
1,B1,binds
2,B2,binds

# Molecular target: mouse ALK on the surface of Neuro2a cells (mouse) (UniProt P97793)
# Experiment: flow cytometry on NB1 and Neuro2a cells
row,Binder,binding
1,B1,binds
2,B2,binds

# Molecular target: murine ALK (Table 18, 'mouse ALK binding') (mouse) (UniProt P97793)
# Experiment: ELISA on purified mouse ALK or flow cytometry on Neuro-2a cells
row,Binder,binding
1,B3,binds
2,B4,binds
3,B5,binds
4,B6,binds
5,B7,binds
6,B8,binds
7,B9,binds
8,B10,binds
